# Assay results as given in PubChem BioAssay AID493014 (National Center for Advancing Translational Sciences (NCATS), 2011).
# About 170 (0.05%) of roughly 340,000 compounds were called active. This list was built around the results that the source calls inconclusive (neither active nor inactive); the mix of calls is not that of the screen. The call rests on the fitted dose curve; in most records, active means well fitted inhibition curve with a large enough effect in the signal ratio, with a control signal flat (not every such curve was filed as active); inconclusive means small, poorly fitted or top-dose-only effect, or effect the other way, or a change in a side signal; inactive means flat fitted curve, though single readings scatter; the % refers to the signal ratio. Potencies beside an inconclusive call are fits to weak or partial responses and may not hold up.
# Assay: qHTS Assay to Find Inhibitors of Chronic Active B-Cell Receptor Signaling;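 on activity change, negative = inhibition: plate controls were basal doxycycline-induced cells for no effect and cells given 10 µM MG132 for full effect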
# Settings: ABC-DLBCL IkBa-CBG/CBR reporter, luminescence ratio (green luciferase fused to IkBa over red control in TMD8 lymphoma cells), 4 h; activity change, negative = inhibition: at 46.1 µM (top of the series)
# In short: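 TMD8 human ABC-DLBCL cells with doxycycline-inducible IκBα–green luciferase fusion and unfused red luciferase, in 0.5% FBS medium; compounds up to 46 uM, 4 h at 37C. Green/red luminescence ratio, filter-overlap corrected, fitted to concentration-response curves.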
# Potency means the concentration at half of the fitted maximal effect.
Compound,"activity change, negative = inhibition",Potency
COc1cccc(NC(=O)COC(=O)c2c3c(nc4ccccc24)CCC(C)C3)c1 (stereo not given),inconclusive: -16.3%,–
CCC1(C)Cc2c(sc3nc(SC)n(Cc4ccccc4)c(=O)c23)CO1 (stereo not given),–,"inconclusive: 1.46 µM [rising, full curve, poor fit]"
O=c1c2ccccc2nnn1Cc1cccc2ccccc12,–,"inconclusive: 11.2 µM [falling, partial curve]"
Cc1cccc(N(CC(=O)N/N=C/c2cc([N+](=O)[O-])ccc2Cl)S(C)(=O)=O)c1C,inactive: -9.58%,–
COc1ccc(-c2cccc(-c3cc(=O)oc4cc(OC)cc(OC)c34)c2)cc1,–,"inconclusive: 1.46 µM [falling, full curve]"
CC(=O)Nc1cccc(C(=O)N/N=C/c2ccc(C)o2)c1,–,"inconclusive: 7.08 µM [falling, partial curve]"
O=C(Cc1sc(-c2ccccc2)nc1-c1ccccc1)Nc1ccccc1,inconclusive: 8.81%,–
CCNS(=O)(=O)c1ccc(NC(=O)Nc2cc(C)ccc2OC)cc1,inconclusive: 10.9%,–
S=C(Nc1ccccc1)N1CCn2cccc2C1c1cccnc1 (stereo not given),inconclusive: -5.96%,–
CCOc1cc(NC(=S)NCC2CCCO2)c(OCC)cc1NC(=O)c1ccccc1F (stereo not given),inconclusive: 10.4%,–
Cc1cccc(Nc2nc(-c3ccccc3)c(C(=O)Nc3cccnc3)s2)c1,inconclusive: 26.6%,–
Cc1ccccc1Oc1cc(NC(=O)Cn2cnc([N+](=O)[O-])c2)cc([N+](=O)[O-])c1,inconclusive: -18.8%,–
CCOc1ccc(/C=N/NC(=S)NC2CC3C=CC2C3)cc1 (stereo not given),inactive: -27.3%,–
CCCCc1ccc(NC(=O)CC(C)C)cc1,–,"inconclusive: 35.5 µM [falling, single point]"
O=C(Cn1ncc(Cl)c(Cl)c1=O)NC1CCCCC1,inconclusive: 12.7%,–
CCOC(=O)c1ccccc1NC(=O)COC(=O)CCC(=O)N1CCOCC1,inconclusive: -6.78%,–
CSc1nsc(/C=C/Nc2ccc(Cl)cc2)c1C#N,inactive: 0.797%,–
CCOC(=O)c1sc(NC(=O)CSc2n[nH]c(CC(C)C)n2)nc1C,inconclusive: -17.8%,–
CCOc1ccc(N2CC(C(=O)Nc3cccc(S(=O)(=O)NC4=NCCC4)c3)CC2=O)cc1 (stereo not given),inconclusive: -0.0368%,–
COc1ccccc1C(=O)N1CCN(Cc2ccc3c(c2)OCO3)CC1,–,"inconclusive: 16.4 µM [falling, partial curve]"
Cc1cccc(N2CCN(C(=O)Cn3cccc3)CC2)c1C,–,"inconclusive: 4.61 µM [rising, single point]"
Cc1cc2oc(=O)cc(-c3ccccc3)c2c(C)c1-c1ccc(CO)cc1,–,"inconclusive: 3.66 µM [falling, partial curve, poor fit]"
Cc1ccc(N2C(=O)C3C4C=CC(CNC(=S)Nc5ccc(Cl)cc5)(O4)C3C2=O)cc1 (stereo not given),inconclusive: -19.1%,–
CCOC(=O)NC(=O)/C(C=Nc1ccc(Cl)cc1)=C(\C)O,inconclusive: 17.9%,–
CCOC(=O)c1c(C)[nH]c(C)c1C(=O)COC(=O)c1c(OC)cccc1OC,inconclusive: -5.99%,–

Compound,"activity change, negative = inhibition",Potency
CCOc1ccc(S(=O)(=O)NCCC(=O)N(C)CC(=O)Nc2ccc(N3CCOCC3)cc2)cc1,inactive: 4.99%,–
CC(=O)N=c1cccc(NC(C)=O)n1O,inconclusive: -6.08%,–
O=C1CC(C(=O)Nc2ccc(F)c(Cl)c2)N=C(N2CCCCC2)N1 (stereo not given),inconclusive: 21.6%,–
CCOc1ccc(CC(=O)N/N=C/c2sccc2C)cc1,inconclusive: 0.314%,–
COc1cccc(C(=O)N(Cc2ccco2)c2c(N)n(Cc3ccccc3)c(=O)[nH]c2=O)c1,inactive: -12.5%,–
CCNC(=S)N(CCc1c(C)[nH]c2ccc(C)cc12)Cc1cccnc1,inconclusive: -3.59%,–
Cc1ccc(NC(=S)NC2CCSc3ccccc32)cc1C (stereo not given),inconclusive: -4.6%,–
CCOC(=O)c1ccc(NC(=O)C2CCN(C(=O)c3ccc(OC)c(OC)c3)CC2)cc1,inconclusive: 12.2%,–
CC(C)(C)C(=O)CNS(=O)(=O)c1ccc(S(=O)(=O)NC2CC2)cc1,inactive: -1.88%,–
CC1(C)CC(=O)C(N=Nc2ccc(Br)cc2)=C(O)C1,inconclusive: 16%,–
Cc1ccc(OC(C)c2nnc(N)s2)cc1Cl (stereo not given),–,"inconclusive: 32.6 µM [falling, single point]"
C=CCOc1ccc(/C=C/C(=O)Nc2ccc(C(=O)NC)cc2)cc1,inconclusive: 6.19%,–
CCCCN(C(=O)CSc1nncn1-c1ccccc1OC)c1c(N)n(Cc2ccccc2)c(=O)[nH]c1=O,inconclusive: -14.4%,–
COC(=O)c1sc(NC(=S)NNC(=O)c2c(Br)c(C)nn2C)c(C(=O)OC)c1C,inactive: 1.64%,–
Cc1cc(N2CCN(c3ccccc3Cl)CC2)n2cc(-c3ccccc3)nc2n1,inactive: 6.39%,–
CC(=O)Nc1ccc(Nc2ncnc3c2c(-c2ccccc2)cn3-c2ccccc2)cc1,–,"inconclusive: 5.62 µM [falling, partial curve, poor fit]"
O=C(Cn1c(-c2cscn2)nc2ccccc21)Nc1ccc2ccccc2c1,inconclusive: 4.9%,–
CCOC(=O)C1CCN(C(=O)COC(=O)c2oc3ccc(OC)cc3c2C)CC1,inconclusive: 4.21%,–
COc1ccc(Cl)cc1NC(=O)NCC1CCN(C(=O)OC(C)(C)C)CC1,inactive: -2.14%,–
COc1ccc(S(=O)(=O)n2oc(=O)cc2-c2ccccc2)cc1OC,–,"inconclusive: 3.66 µM [rising, partial curve, poor fit]"
NC(=O)C1CCN(C(=O)COc2ccc3c(c2)oc(=O)c2ccccc23)CC1,–,"inconclusive: 4.47 µM [falling, full curve, poor fit]"
CCn1c(SCc2nc3ccccc3s2)nnc1-c1ccccc1,–,"inconclusive: 4.11 µM [rising, full curve, poor fit]"
Cc1ccc(NC(=O)C2CCCN(C(=O)c3ccc(Cl)cc3)C2)cc1 (stereo not given),inactive: 4.62%,–
CC(=O)N1N=C(c2ccc3ccccc3c2)OC12CCCC2,inconclusive: 14.7%,–
COc1cccc(NC(=O)[C@H](Cc2ccccc2)NC(=O)[C@@H]2Cc3ccccc3CN2)c1,inconclusive: -1.31%,–
